Data as given in article PMC9239171.
No constants are given. Whether binding was seen depends on the method and setting. In cells and extracts the contact can be indirect. Some binding calls cover weakened binding; strength is not graded here.

Chains of the proteins cited; added tags and fusions are not shown. Lines headed by an entry give the natural chain unless they say otherwise; changes in a name come on top. A line that says so, or that is headed by a name, gives the form on record, which may keep a tag or linker.
UniProt O75190: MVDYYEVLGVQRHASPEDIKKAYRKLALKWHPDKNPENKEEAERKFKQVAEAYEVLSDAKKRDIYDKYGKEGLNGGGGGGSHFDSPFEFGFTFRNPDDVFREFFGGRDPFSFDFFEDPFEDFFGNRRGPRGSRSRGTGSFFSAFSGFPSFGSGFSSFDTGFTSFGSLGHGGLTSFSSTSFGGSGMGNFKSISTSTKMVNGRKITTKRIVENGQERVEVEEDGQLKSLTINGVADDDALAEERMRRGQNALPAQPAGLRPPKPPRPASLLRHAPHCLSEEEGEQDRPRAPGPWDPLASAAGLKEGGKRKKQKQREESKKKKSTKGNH
human DNAJB6(S) (DNAJB6-FLAG, short isoform) (O75190, form named): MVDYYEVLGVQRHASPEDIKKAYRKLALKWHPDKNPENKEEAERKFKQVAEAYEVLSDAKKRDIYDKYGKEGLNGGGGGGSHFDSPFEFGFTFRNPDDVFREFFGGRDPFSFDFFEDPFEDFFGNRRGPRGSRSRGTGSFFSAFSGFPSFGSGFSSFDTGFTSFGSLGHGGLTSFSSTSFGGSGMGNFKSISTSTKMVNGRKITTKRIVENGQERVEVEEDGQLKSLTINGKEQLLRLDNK
UniProt O95817: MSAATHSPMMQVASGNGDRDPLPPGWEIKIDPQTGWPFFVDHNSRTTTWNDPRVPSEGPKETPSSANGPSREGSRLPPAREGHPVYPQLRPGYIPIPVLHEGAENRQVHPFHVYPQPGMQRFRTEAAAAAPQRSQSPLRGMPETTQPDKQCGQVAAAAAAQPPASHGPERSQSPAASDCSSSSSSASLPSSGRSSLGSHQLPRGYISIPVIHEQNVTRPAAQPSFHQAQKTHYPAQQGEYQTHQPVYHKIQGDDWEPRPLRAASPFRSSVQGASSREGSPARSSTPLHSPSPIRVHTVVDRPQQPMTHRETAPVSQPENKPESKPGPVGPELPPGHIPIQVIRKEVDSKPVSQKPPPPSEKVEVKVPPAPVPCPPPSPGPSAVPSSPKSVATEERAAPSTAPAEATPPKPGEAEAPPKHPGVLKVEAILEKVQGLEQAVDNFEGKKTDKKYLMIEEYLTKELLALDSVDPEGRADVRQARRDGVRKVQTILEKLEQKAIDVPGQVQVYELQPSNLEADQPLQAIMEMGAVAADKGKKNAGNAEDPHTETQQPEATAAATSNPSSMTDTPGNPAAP

What was measured:
[1] = target: human DNAJB6(L) (DNAJB6-FLAG, long isoform) (human) (UniProt O75190); assay: co-IP; DNAJB6-FLAG and BAG3-HA constructs transfected singly or together into HEK293 cells; FLAG Immunoprecipitation Kit (Sigma); blots with anti-FLAG and anti-HA; the results call it an in vitro protein pulldown assay
[2] = target: human DNAJB6(S) (DNAJB6-FLAG, short isoform) (human) (UniProt O75190); assay: as above

binding [1]: binds
binding [2]: binds
Substance: human BAG3 (BAG3-HA) (from UniProt O95817 1-575)
